Measurements from article PMC5379670.
These are yes or no findings as the source states them, for the method shown. In cells and extracts the contact can be indirect. Here binding means that the protein was enriched with, or labelled near, the bait; the list need not be complete. No binding means not detected with the bait. Sequences can lack the tags named with a protein.

Protein sequences, listed by entry. Tags and fused reporters are not part of them.
UniProt O88477: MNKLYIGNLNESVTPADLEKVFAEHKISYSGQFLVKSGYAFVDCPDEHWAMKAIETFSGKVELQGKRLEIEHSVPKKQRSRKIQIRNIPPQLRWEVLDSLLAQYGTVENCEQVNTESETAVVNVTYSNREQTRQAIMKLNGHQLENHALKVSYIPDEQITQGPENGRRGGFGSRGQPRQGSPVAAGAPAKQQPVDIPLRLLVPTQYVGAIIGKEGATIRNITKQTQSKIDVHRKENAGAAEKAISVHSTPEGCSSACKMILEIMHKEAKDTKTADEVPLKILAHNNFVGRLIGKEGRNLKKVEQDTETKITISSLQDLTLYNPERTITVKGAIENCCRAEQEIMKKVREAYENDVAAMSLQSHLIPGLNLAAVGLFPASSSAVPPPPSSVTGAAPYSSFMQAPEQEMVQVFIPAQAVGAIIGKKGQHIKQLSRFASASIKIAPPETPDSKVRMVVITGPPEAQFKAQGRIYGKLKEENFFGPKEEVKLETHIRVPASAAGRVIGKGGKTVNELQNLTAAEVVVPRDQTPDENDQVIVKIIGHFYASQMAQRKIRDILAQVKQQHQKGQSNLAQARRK
UniProt Q61879: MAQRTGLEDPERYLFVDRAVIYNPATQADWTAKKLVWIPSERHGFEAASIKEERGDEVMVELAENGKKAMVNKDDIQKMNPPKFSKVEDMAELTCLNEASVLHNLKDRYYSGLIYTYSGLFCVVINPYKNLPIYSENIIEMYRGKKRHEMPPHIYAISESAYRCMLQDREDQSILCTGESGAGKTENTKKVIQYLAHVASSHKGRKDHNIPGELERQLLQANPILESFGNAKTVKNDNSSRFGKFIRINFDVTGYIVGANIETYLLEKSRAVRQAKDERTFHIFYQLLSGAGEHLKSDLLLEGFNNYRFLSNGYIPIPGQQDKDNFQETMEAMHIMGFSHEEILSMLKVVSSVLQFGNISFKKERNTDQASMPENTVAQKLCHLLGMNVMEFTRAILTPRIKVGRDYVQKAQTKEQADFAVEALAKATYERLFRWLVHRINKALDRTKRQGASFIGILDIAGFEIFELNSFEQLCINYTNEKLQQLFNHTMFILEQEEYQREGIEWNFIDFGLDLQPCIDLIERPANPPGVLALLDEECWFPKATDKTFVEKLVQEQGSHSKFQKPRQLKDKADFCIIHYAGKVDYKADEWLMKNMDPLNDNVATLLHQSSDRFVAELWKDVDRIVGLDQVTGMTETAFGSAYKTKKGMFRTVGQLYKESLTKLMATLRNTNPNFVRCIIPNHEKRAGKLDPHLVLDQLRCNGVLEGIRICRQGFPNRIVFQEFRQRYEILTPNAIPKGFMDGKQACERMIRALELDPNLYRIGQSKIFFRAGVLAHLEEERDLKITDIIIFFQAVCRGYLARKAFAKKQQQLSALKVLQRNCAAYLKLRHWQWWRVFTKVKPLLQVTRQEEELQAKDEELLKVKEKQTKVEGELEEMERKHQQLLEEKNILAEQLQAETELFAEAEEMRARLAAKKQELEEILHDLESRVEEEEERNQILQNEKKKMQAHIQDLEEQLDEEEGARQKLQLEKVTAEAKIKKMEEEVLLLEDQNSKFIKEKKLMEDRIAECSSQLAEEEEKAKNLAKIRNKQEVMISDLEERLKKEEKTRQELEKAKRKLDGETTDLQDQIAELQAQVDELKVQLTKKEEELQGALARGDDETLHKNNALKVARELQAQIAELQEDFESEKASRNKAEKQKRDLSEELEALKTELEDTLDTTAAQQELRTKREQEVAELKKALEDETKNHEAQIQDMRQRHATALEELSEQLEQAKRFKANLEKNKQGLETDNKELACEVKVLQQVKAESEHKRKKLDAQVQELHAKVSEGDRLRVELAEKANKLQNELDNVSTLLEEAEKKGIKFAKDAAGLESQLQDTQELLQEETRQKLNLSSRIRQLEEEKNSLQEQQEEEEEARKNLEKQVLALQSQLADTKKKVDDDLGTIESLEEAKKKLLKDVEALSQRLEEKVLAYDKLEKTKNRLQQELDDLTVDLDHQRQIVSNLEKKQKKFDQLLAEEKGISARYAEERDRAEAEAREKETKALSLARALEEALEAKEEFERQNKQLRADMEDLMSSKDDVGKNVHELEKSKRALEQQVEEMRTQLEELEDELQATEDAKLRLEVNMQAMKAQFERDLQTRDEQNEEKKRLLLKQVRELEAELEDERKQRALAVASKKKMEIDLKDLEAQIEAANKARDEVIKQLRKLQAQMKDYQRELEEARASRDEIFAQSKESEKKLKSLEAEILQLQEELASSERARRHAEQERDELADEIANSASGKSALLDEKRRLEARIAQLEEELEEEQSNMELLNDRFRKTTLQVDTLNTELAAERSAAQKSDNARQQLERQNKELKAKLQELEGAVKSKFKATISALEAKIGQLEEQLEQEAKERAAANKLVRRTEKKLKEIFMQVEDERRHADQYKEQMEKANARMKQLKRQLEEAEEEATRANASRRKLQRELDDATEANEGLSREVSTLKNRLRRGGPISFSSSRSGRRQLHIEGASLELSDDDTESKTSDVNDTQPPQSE
UniProt P57780: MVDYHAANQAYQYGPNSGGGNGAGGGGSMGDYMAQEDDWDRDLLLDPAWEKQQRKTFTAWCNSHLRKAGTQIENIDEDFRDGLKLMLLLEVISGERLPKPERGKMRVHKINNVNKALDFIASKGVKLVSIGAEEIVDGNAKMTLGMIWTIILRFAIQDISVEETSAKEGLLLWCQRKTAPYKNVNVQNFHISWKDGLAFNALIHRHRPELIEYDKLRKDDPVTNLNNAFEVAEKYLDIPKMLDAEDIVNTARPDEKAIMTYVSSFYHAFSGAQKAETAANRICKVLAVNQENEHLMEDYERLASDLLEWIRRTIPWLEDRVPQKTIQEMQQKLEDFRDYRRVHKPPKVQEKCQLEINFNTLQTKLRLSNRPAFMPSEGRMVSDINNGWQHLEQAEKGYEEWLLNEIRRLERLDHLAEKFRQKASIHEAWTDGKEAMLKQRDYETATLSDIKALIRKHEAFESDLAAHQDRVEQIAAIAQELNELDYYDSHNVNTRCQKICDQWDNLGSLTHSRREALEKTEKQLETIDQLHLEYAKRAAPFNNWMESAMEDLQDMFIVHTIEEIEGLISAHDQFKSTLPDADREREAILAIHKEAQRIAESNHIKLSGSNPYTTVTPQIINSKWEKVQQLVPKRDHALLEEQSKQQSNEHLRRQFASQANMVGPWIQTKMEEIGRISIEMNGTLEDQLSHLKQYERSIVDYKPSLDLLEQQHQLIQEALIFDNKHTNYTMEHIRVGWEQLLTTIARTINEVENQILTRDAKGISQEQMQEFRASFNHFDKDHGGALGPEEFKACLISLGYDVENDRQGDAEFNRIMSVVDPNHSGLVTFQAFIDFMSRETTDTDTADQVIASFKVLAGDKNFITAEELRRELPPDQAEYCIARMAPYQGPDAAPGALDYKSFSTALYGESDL
UniProt P11103: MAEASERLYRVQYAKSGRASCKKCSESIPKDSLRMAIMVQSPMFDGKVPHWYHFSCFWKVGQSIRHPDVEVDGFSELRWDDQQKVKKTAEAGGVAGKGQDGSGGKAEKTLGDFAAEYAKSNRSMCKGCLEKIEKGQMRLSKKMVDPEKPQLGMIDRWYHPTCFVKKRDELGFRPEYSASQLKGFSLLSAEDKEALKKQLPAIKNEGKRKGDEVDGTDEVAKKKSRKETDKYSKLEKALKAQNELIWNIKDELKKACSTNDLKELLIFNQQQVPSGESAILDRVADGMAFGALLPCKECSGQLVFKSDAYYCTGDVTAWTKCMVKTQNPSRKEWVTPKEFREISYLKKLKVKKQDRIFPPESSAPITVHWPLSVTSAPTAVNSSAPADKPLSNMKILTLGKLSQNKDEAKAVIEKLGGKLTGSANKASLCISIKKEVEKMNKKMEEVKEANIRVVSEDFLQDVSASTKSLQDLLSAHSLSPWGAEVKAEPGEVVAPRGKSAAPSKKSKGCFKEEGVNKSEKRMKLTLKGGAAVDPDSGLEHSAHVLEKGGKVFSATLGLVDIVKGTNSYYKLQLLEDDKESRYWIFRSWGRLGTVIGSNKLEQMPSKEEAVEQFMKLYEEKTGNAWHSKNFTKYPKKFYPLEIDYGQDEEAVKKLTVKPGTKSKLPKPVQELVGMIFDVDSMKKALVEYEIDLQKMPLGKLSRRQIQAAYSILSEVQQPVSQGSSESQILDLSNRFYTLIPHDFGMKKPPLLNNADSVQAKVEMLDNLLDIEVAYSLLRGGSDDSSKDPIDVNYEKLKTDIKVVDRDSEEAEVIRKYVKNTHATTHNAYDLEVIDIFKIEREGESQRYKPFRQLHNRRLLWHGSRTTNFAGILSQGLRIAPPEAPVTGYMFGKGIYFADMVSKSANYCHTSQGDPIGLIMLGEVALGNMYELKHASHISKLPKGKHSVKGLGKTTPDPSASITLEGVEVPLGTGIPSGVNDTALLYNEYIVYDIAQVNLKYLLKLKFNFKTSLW
UniProt P19157: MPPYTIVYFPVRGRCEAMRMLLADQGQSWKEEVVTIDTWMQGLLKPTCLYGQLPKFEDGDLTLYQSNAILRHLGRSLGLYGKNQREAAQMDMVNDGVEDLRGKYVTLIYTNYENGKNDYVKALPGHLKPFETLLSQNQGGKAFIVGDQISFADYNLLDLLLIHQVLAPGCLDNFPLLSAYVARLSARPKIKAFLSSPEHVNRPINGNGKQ
UniProt Q91WK0: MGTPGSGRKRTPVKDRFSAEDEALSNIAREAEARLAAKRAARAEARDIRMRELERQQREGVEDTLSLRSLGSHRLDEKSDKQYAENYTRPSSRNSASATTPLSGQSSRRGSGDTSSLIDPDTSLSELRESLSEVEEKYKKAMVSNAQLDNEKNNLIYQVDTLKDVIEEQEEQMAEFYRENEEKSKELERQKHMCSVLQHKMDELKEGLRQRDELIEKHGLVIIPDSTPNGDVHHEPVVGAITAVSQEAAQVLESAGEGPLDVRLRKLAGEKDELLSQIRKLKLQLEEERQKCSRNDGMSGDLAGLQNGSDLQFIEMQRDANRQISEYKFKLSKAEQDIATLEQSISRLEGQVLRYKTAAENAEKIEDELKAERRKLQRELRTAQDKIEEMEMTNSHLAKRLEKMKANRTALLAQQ
UniProt P68373: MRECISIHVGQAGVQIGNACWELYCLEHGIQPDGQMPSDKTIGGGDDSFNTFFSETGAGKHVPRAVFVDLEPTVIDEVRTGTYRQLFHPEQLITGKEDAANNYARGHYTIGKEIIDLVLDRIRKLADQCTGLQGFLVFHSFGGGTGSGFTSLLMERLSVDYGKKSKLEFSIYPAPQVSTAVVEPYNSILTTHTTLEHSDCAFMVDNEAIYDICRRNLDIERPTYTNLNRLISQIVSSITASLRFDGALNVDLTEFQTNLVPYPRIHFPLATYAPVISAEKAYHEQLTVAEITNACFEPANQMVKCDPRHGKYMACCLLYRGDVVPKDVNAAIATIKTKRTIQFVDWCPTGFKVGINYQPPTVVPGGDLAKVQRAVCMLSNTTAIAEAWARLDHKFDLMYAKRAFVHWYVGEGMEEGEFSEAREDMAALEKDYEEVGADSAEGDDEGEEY
UniProt P68372: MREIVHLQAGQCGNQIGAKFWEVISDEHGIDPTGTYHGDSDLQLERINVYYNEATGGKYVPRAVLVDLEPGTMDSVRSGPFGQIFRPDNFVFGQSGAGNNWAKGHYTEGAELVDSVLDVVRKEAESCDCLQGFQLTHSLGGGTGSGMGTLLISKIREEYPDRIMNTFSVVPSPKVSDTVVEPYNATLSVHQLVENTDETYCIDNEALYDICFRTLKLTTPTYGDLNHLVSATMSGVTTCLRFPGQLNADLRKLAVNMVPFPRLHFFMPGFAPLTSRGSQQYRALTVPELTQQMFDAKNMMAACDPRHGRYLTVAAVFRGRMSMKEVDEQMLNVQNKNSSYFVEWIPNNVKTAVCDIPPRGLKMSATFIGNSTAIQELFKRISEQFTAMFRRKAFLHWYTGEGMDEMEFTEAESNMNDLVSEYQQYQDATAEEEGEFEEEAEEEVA
UniProt Q9WUM3: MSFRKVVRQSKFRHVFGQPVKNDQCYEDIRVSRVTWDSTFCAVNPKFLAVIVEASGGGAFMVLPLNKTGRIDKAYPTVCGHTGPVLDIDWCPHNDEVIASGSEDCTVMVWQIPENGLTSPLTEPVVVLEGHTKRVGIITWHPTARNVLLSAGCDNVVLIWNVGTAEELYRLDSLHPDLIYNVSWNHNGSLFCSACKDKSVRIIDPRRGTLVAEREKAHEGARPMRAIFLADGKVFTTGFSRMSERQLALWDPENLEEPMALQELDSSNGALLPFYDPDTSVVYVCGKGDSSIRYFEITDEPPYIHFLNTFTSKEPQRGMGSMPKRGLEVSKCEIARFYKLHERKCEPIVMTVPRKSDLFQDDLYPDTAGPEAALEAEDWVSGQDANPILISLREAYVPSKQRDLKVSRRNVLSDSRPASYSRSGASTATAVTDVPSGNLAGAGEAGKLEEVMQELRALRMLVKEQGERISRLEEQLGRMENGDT

T1: Flag-tagged mouse MAGE-G1 stably expressed in P19 cells (mouse) (UniProt Q9CPR8)
T1 sequence: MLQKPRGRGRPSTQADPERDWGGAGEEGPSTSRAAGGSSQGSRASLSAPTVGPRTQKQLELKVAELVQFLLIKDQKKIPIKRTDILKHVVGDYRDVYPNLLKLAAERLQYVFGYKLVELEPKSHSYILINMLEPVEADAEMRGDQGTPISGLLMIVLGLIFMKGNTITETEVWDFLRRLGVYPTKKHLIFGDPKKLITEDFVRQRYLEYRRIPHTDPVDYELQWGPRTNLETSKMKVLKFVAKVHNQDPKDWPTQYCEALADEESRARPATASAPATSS

B1: DNA ligase 3 (protein, UniProt P97386 1-1015)
chain: MTLAFKILFPRNLCALGRKELCLFPEQNRWAAISQFSQWSETNLLGGCCLLQRRKPVLALQRGHLRPRATHLTFWPGSHVGLCTGPCAMAEQRFCVDYAKRGTAGCKKCKEKIVKGVCRIGKVVPNPFSESGGDMKEWYHIKCMFEKLERARATTKKIEDLTELEGWEELEDNEKEQISQHIADLSSKAAATPKKKAAVQAKLTTTGQVTSPVKGASFITSTNPRKFSGFSAAKPNNSEQAPSSPAPGTSLSASKCDPKHKDCLLREFRKLCAMVAENPSYNTKTQIIHDFLQKGSTGGFSDGFHGDVYLTVKLLLPGVIKSVYNLNDKQIVKLFSRIFNCNPDDMARDLEQGDVSETIRIFFEQSKSFPPAAKSLLTIQEVDAFLLHLSKLTKEDEQQQALQDIASRCTANDLKCIIRLIKHDLKMNSGAKHVLDALDPNAYEAFKASRNLQDVVERVLHNEQEVEKDPGRRRALRVQASLMTPVQPMLAEACKSIEYAMKKCPNGMFSEIKYDGERVQVHKKGDHFSYFSRSLKPVLPHKVAHFKDYIPKAFPGGQSMILDSEVLLIDNNTGKPLPFGTLGVHKKAAFQDANVCLFVFDCIYFNDVSLMDRPLCERRKFLHDNMVEIRNRIMFSEMKQVTKASDLADMINRVIREGLEGLVLKDVKGTYEPGKRHWLKVKKDYLNEGAMADTADLVVLGAFYGQGSKGGMMSIFLMGCYDPDSQKWCTVTKCAGGHDDATLARLQKELVMVKISKDPSKIPSWLKINKIYYPDFIVPDPKKAAVWEITGAEFSRSEAHTADGISIRFPRCTRIRDDKDWKSATNLPQLKELYQLSKDKADFAVVAGDEASPTTGGSSGENEGTAGSAGPCKGPPSKSSASAKTTEQKLNSPSSRGGIKPIPKHSPMKPGEKLAVKSSPVKVGMKRKATDETPCLKKVLLDVFTGVRLYLPPSTPDFKRLKRYFVAFDGDLVQEFDMGSATHVLGNREKNTDAQLVSSEWIWACIRKRRLIAPC
B2: Histone H1.1 (protein, UniProt P43275 1-213)
chain: MSETAPVAQAASTATEKPAAAKKTKKPAKAAAPRKKPAGPSVSELIVQAVSSSKERSGVSLAALKKSLAAAGYDVEKNNSRIKLGLKSLVNKGTLVQTKGTGAAGSFKLNKKAESKAITTKVSVKAKASGAAKKPKKTAGAAAKKTVKTPKKPKKPAVSKKTSKSPKKPKVVKAKKVAKSPAKAKAVKPKASKAKVTKPKTPAKPKKAAPKKK
B3: Tropomodulin-3 (protein, UniProt Q9JHJ0 1-352)
chain: MALPFRKDLGDYKDLDEDELLGKLSESELKQLETVLDDLDPENALLPAGFRQKNQTSKSATGPFDRERLLSYLEKQALEHKDRDDYVPYTGEKKGKIFIPKQKPAQTLTEETISLDPELEEALTSASDTELCDLAAILGMHNLIADTPFCDVLGSSNGVNQERFPNVVKGEKILPVFDEPPNPTNVEESLKRIRENDARLVEVNLNNIKNIPIPTLKDFAKTLEANTHVKHFSLAATRSNDPVAVAFADMLKVNKTLKSLNMESNFITGAGVLALIDALRDNETLMELKIDNQRQQLGTSVELEMAKMLEENTNILKFGYQFTQQGPRTRAANAITKNNDLVRKRRIEGDHQ
B4: Paraspeckle component 1 (protein, UniProt Q8R326 1-523)
chain: MMLRGNLKQVRIEKNPARLRALESAAGESEPVAAAAMALTLAGEQAPPPAPSEEHPDEELGFTIDIKSFLKPGEKTYTQRCRLFVGNLPTDITEEDFKRLFERYGEPSEVFINRDRGFGFIRLESRTLAEIAKAELDGTILKSRPLRIRFATHGAALTVKNLSPVVSNELLEQAFSQFGPVEKAVVVVDDRGRATGKGFVEFAAKPPARKALERCGDGAFLLTTTPRPVIVEPMEQFDDEDGLPEKLMQKTQQYHKEREQPPRFAQPGTFEFEYASRWKALDEMEKQQREQVDRNIREAKEKLEAEMEAARHEHQLMLMRQDLMRRQEELRRLEELRNQELQKRKQIQLRHEEEHRRREEEMIRHREQEELRRQQEGGFKPNYMENREQEMRMGDMGPRGAINMGDAFSPAPAGTQGPPPMMGMNMNNRGTIPGPPMGPGPAMGPEGAANMGTPMIPDNGAVHNDRFPQGPPSQMGSPMGNRTGSETPQAPMSGVGPVSGGPGGFGRGSQGGNFEGPNKRRRY
B5: Heterogeneous nuclear ribonucleoprotein F (protein, UniProt Q9Z2X1 1-415)
chain: MMLGPEGGEGYVVKLRGLPWSCSIEDVQNFLSDCTIHDGVAGVHFIYTREGRQSGEAFVELESEDDVKLALKKDRESMGHRYIEVFKSHRTEMDWVLKHSGPNSADSANDGFVRLRGLPFGCTKEEIVQFFSGLEIVPNGITLPVDPEGKITGEAFVQFASQELAEKALGKHKERIGHRYIEVFKSSQEEVRSYSDPPLKFMSVQRPGPYDRPGTARRYIGIVKQAGLDRMRSGAYSAGYGGYEEYSGLSDGYGFTTDLFGRDLSYCLSGMYDHRYGDSEFTVQSTTGHCVHMRGLPYKATENDIYNFFSPLNPVRVHIEIGPDGRVTGEADVEFATHEEAVAAMSKDRANMQHRYIELFLNSTTGASNGAYSSQVMQGMGVSAAQATYSGLESQSVSGCYGAGYSGQNSMGGYD
B6: Plastin-3 (protein, UniProt Q99K51 1-630)
chain: MDEMATTQISKDELDELKEAFAKVDLNSNGFICDYELHELFKEANMPLPGYKVREIIQKLMVDGDRNKDGKISFNEFVYIFQEVKSSDIAKTFRKAINRKEGICALGGTSELSSEGTQHSYSEEEKYAFVNWINKALENDPDCRHVIPMNPNTDDLFKAVGDGIVLCKMINLSVPDTIDERAINKKKLTPFIIQENLNLALNSASAIGCHVVNIGAEDLRAGKPHLVLGLLWQIIKIGLFADIELSRNEALAALLRDGETLEELMKLSPEELLLRWANFHLENSGWQKINNFSADIKDSKAYFHLLNQIAPKGQKEGEPRIDINMSGFNETDDLKRAESMLQQADKLGCRQFVTPADVVSGNPKLNLAFVANLFNKYPALTKPENQDIDWTLLEGETREERTFRNWMNSLGVNPHVNHLYADLQDALVILQLYERIKVPVDWSKVNKPPYPKLGANMKKLENCNYAVELGKNPAKFSLVGIGGQDLNDGNPTLTLAVVWQLMRRYTLNVLEDLGEGQKANDDIIVNWVNRTLSEAGKSTSIQSFKDKTISSSLAVVDLIDAIQPGCINYDLVKSGNLTEDDKHNNAKYAVSMARRIGARVYALPEDLVEVKPKMVMTVFACLMGRGMKRV
B7: Drebrin (protein, UniProt Q9QXS6 1-706)
chain: MAGVSFSGHRLELLAAYEEVIREESAADWALYTYEDGSDDLKLAASGEGGLQELSGHFENQKVMYGFCSVKDSQAALPKYVLINWVGEDVPDARKCACASHVAKVAEFFQGVDVIVNASSVEDIDAGAIGQRLSNGLARLSSPVLHRLRLREDENAEPVGTTYQKTDAAVEMKRINREQFWEQAKKEEELRKEEERKKALDARLRFEQERMEQERQEQEERERRYREREQQIEEHRRKQQSLEAEEAKRRLKEQSIFGDQRDEEEESQMKKSESEVEEAAAIIAQRPDNPREFFRQQERVASASGGSCDAPAPAPFNHRPGRPYCPFIKASDSGPSSSSSSSSSPPRTPFPYITCHRTPNLSSSLPCSHLDSHRRMAPTPIPTRSPSDSSTASTPIAEQIERALDEVTSSQPPPPPPPPPPTQEAQETTPSLDEELSKEAKVTAAPEVWAGCAAEPPQAQEPPLLQSSPLEDSMCTESPEQAALAAPAEPAASVTSVADVHAADTIETTTATTDTTIANNVTPAAASLIDLWPGNGEEASTLQAEPRVPTPPSGAEASLAEVPLLNEAAQEPLPPVGEGCANLLNFDELPEPPATFCDPEEEVGETLAASQVLTMPSALEEVDQVLEQELEPEPHLLTNGETTQKEGTQASEGYFSQSQEEEFAQSEEPCAKVPPPVFYNKPPEIDITCWDADPVPEEEEGFEGGD

The molecules below were run against T1, Flag-tagged mouse MAGE-G1 stably expressed in P19 cells (mouse) (assay: affinity purification with mass spectrometry; SILAC: lysates of heavy-labelled P19 cells stably expressing Flag-MAGE-G1 and light-labelled empty-vector cells, both RA-treated 6 days, mixed 1:1; anti-Flag immunoprecipitation in IP Lysis Buffer (25 mM Tris-HCl pH 7.4, 150 mM NaCl, 1% NP-40, 1 mM EDTA, 5% glycerol) overnight at 4 °C, Protein A/G Plus-agarose; SDS-PAGE, in-gel trypsin digestion, LC-MS/MS).

binding, no binding:
Coronin-1C (from UniProt Q9WUM4 1-474)
Insulin-like growth factor 2 mRNA-binding protein 1 (from UniProt O88477 1-577)
Myosin-10 (from UniProt Q61879 1-1976)
Alpha-actinin-4 (from UniProt P57780 1-912)
Poly [ADP-ribose] polymerase 1 (from UniProt P11103 1-1013)
Glutathione S-transferase P 1 (from UniProt P19157 1-210)
Leucine-rich repeat flightless-interacting protein 2 (from UniProt Q91WK0 1-415)
Tubulin alpha-1C chain (from UniProt P68373 1-449)
Tubulin beta-5 chain (from UniProt P99024 1-444)
Inosine-5′-monophosphate dehydrogenase 2 (from UniProt P24547 1-514)
Tubulin beta-4B chain (from UniProt P68372 1-445)
Coronin-1B (from UniProt Q9WUM3 1-484)
B1
B2
B3
B4
B5
B6
B7
